Measured values from publication PMC7356810.
These are yes or no findings as the source states them, for the method shown. For some of these results: Binding seen in cells or lysates may run through a third protein. Some binding calls cover weakened binding; strength is not graded here. Each block holds one molecule with its values, some of them ahead of it.

By UniProt entry, the sequences of proteins in these tests, tags left out. Where a name states a change or a piece, a line headed by the entry shows the natural chain unless it says otherwise. Chains listed by the source or under a name are the forms on record and can include a tag or linker. Residues count along the entry.
UniProt Q92615: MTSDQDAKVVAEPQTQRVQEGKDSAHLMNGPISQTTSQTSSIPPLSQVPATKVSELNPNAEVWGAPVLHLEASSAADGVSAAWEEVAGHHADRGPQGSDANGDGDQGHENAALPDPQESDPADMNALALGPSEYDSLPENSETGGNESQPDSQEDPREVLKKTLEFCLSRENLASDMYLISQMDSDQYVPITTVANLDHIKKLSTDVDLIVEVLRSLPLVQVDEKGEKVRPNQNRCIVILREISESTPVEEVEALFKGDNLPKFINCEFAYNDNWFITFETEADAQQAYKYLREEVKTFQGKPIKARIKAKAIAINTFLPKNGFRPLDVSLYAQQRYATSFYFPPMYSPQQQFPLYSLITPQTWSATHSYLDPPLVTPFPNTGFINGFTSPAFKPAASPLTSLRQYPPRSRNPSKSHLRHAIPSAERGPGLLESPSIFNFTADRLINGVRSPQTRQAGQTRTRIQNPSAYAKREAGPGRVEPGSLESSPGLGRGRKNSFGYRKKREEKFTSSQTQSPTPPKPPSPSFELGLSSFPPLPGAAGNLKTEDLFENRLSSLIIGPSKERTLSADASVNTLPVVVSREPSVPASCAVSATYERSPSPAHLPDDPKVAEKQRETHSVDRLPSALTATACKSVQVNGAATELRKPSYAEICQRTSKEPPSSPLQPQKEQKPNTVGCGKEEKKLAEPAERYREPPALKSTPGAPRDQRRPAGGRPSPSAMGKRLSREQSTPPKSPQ
HA-LARP4B W(63)→K (overexpressed in HEK293 cells) (Q92615, form named): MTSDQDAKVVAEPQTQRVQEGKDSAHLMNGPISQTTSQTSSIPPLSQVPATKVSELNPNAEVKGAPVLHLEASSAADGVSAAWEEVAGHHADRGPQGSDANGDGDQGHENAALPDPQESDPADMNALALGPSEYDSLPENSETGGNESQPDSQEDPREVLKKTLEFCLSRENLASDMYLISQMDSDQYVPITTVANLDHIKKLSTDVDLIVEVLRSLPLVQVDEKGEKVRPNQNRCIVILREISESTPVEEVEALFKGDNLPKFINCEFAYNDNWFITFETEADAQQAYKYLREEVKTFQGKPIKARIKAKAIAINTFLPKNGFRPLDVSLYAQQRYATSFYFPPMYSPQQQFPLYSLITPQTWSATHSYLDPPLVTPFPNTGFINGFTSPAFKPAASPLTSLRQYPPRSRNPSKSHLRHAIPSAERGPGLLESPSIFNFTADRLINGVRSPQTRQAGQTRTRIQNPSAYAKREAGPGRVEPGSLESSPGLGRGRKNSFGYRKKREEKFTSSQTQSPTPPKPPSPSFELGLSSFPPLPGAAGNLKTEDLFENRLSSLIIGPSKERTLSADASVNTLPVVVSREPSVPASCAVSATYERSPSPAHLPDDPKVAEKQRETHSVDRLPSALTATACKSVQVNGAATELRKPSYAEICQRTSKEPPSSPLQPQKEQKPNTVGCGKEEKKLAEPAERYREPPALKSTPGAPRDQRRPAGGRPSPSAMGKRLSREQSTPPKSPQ
UniProt P11940: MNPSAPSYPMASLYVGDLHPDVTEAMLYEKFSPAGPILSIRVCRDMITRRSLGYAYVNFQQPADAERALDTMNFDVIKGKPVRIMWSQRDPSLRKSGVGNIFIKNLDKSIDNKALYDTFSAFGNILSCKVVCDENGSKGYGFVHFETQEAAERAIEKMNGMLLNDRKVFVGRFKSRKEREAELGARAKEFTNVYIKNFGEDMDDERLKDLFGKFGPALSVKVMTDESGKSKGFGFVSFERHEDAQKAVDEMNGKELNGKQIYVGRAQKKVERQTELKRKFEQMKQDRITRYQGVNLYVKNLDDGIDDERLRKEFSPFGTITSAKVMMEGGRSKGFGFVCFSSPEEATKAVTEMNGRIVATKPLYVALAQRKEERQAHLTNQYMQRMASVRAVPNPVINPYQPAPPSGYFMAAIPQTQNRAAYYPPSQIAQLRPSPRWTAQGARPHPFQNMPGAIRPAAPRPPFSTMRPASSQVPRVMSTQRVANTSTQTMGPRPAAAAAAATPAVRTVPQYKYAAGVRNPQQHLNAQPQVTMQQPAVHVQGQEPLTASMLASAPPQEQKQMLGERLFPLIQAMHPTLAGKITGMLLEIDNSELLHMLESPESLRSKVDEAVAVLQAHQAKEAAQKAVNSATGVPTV
MLLE domain (amino acids 543-621) of human PABPC1: residues 543-621 of P11940

How the values were obtained:
[1] = target: HA-LARP4B (in vitro translated) (human) (UniProt Q92615); assay: co-IP; HA-PABPC1 co-translated in vitro with HA-LARP4B or the W63K mutant, [35S]-labelled; immunoprecipitated with anti-LARP4B antibody on protein-G-Sepharose (pre-immune serum as control); autoradiography
[2] = target: HA-LARP4B W(63)→K (overexpressed in HEK293 cells) (human) (UniProt Q92615); assay: co-IP; extracts of HEK293 cells co-transfected with HA-LARP4B or the W63K mutant and PABPC1; immunoprecipitated with anti-LARP4B antibody (pre-immune serum as control); Western blotting
[3] = target: HA-LARP4B (overexpressed in HEK293 cells) (human) (UniProt Q92615); assay: as above
[4] = target: MLLE domain (amino acids 543-621) of human PABPC1 (human) (UniProt P11940); assay: crystal structure; MLLE domain co-crystallised with LARP4B-PAM2w peptide in a 1:1.5 molar ratio; hanging drop; 100 mM NaCl, 2 mM beta-mercaptoethanol, 10 mM HEPES pH 7.5; reservoir 1.5 M magnesium sulfate, 0.1 M Bis-Tris pH 6.5; 1.7 Å; both purified

binding [1]: binds
Molecule: HA-PABPC1 (in vitro translated) (from UniProt P11940 1-636)

binding [2]: binds
binding [3]: binds
Molecule: PABPC1 (co-transfected in HEK293 cells) (from UniProt P11940 1-636)

binding [4]: binds
Molecule: LNPNAEVWGAPVLHL (peptide, UniProt Q92615 56-70) [LARP4B-PAM2w peptide (residues 56 to 70)]
